Reference: PubChem BioAssay AID652054 (National Center for Advancing Translational Sciences (NCATS), 2013)
About 9,100 (2.5%) of roughly 360,000 compounds were called active. Inconclusive results, whose numbers are uncertain, are shown with a selection of clear calls. No stated cut-off is given here; in the data, active means max response below about -50%; inconclusive means no clear call, values can overlap the other calls; inactive means above that.

By UniProt entry, the sequences of proteins in these tests, tags left out.
UniProt P35462, whole entry, looked up: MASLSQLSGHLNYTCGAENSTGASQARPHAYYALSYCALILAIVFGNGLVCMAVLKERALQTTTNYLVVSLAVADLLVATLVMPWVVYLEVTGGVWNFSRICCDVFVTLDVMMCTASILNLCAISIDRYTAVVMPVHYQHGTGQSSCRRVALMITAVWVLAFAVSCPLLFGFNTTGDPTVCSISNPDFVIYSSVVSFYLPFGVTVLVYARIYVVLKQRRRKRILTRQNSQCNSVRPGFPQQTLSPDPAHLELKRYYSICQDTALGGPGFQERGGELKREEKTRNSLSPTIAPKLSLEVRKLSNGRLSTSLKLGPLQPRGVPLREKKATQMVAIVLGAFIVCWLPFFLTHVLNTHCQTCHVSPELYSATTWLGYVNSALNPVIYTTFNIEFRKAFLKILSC

What follows are molecules tested against D(3) dopamine receptor (Homo sapiens) (UniProt P35462) (assay: qHTS of D3 Dopamine Receptor Antagonist: qHTS). Details: D3R cells, DiscoveRx beta-arrestin luminescence, antagonist mode; active compounds read low.
Outline: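 Cells expressing the human receptor were seeded at 1500 cells/well, incubated overnight at 37 degrees C in 5% CO2, then exposed to library compounds with dopamine controls for 90 minutes at 37 degrees C before luminescent detection.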
On the % scale 0 is the no-effect control and ±100 the full control effect.

Max response, negative = inhibition, active:
Cc1ccc(S(=O)(=O)Nc2cccc3cccnc23)cc1 -80.6%
FC(F)(F)c1nc2nc(Cl)c(Cl)nc2n1CCCN1CCOCC1 -56.9%
CC1Cc2ccccc2N1C(=O)Cn1cc(C(F)(F)F)ccc1=O (configuration not stated) -117%
Cc1[nH]nc(C(=O)NN=Cc2ccccc2Cl)c1N=NN(C)C -80.7%
COc1ccccc1/C=C/CN1CCN(Cc2ccc(F)cc2)C(CCO)C1 (configuration not stated) -82.3%
COc1cc(NC(=O)C2C3C=CC(C3)C2C(=O)O)c(OC)cc1Cl (configuration not stated) -86.1%
Cc1cccnc1C(c1ccc(F)cc1)N(C)C(=O)C1CCN(CCCOc2ccc(F)cc2)CC1 (configuration not stated) -94.1%
O=C(CN1CCN(c2ccccc2)CC1)c1ccc2cc[nH]c2c1 -63.2%

Max response, negative = inhibition, inactive:
O=C(NCCCNC(=O)c1cnccn1)c1cccc(F)c1 1.68%
CCC1(C2C=COC=C2)NC(=O)NC1=O (configuration not stated) -17.4%
CCOC(=O)c1cc(=O)n2c(nc3ccccc32)[nH]1 -18.8%
O=C(CCl)Nc1cccc(S(=O)(=O)NC2=NCCCCC2)c1 -6.07%
Cc1sc2ncnc(N3CCN(Cc4ccccc4)CC3)c2c1-c1ccccc1 11.4%
Cc1ccc(NC(=S)NNC(=S)Nc2ccc(C)cc2)cc1 15.5%
CN(CCc1ccccn1)C(=O)Nc1ccc(C(C)(C)C)cc1 -15.6%
CC(C)(C)OC(=O)NCCCC[C@H](NC(=O)c1nc[nH]c1C(=O)NCc1ccccc1)C(=O)OC(C)(C)C 20.9%
CC(Oc1ccccc1F)c1nnc(SCC(=O)Nc2ccc(N3CCOCC3)cc2)o1 (configuration not stated) 17.9%
CCCNC(=O)C1(C)CCN(Cc2cc(-c3ccccc3)on2)C1 (configuration not stated) 6.66%
COc1ccc(C(=O)Cn2c(C(C)=O)nc3ccccc32)cc1 11%
COc1ccc(N(C)S(=O)(=O)c2ccc(Cl)c(C(=O)NCCc3ccc(Cl)cc3)c2)cc1 -0.849%
O=[N+]([O-])/C=C\c1ccc(N2CCCC2)c(F)c1 9.97%
C(=C\c1nnc2c3ccccc3ncn12)/c1ccccc1 -1.09%
Cn1c(-c2c(N)n(C3CCCC3)c3nc4ccccc4nc23)nc2ccccc21 78%
Cc1cccc(C)c1NC(=O)CN1CCN(c2ccc(F)cc2)CC1 -14.3%
Cc1occc1C(=O)Nc1sccc1C(N)=O 12.3%
CC(C)(C)CN1CCNC(=O)C1CC(=O)NCCN1CCCc2ccccc21 (configuration not stated) -12.7%
CCn1c(SCC(=O)N/N=C/C=C\c2ccco2)nc2ccccc21 -27.9%
C=CCSC1=C(C#N)C(c2ccccc2OCC)C(C#N)C(=O)N1 (configuration not stated) -15.3%
CC(=O)Nc1cc(-c2ccc(N3CCN(C)CC3)cc2)cn2c(-c3ccccc3)cnc12 0%
COc1ccc(C2CC(c3ccccc3)=NN2C(=O)CSc2ncn[nH]2)cc1 (configuration not stated) -16.7%
Cc1cccc2[nH]c3c(N4CCC5(CC4)OCCO5)ncnc3c12 32.6%

Max response, negative = inhibition, inconclusive:
N=c1c2c3c(sc2ncn1Nc1ccccc1)CCC3 -30.8%
Cc1cc(OCCCN2CCCC2)ccc1Cl -30.9%
COc1ccc(OCCN2CCC(C(=O)NC(C)c3cccc4ccccc34)CC2)cc1 (configuration not stated) -34.2%
COc1cc(OC)cc(C(=O)NCCc2cnc[nH]2)c1 -39.6%
O=C(Nc1ccccc1)N(C1=NCCCCS1)c1cccc2ccccc12 -48.5%
Cc1ccc(NS(=O)(=O)c2c(C)[nH]c(C)c2C(=O)N2CCCCC2)cc1C -38.7%
Cc1nc2nc(SCC(=O)N3CCOCC3)nn2c(C)c1Cc1ccccc1 -31.8%
CC(=O)c1cccc(-c2ccnc3c2CC(C(=O)Nc2cccc(Oc4ccccc4)c2)O3)c1 (configuration not stated) -38.3%
O=C(NCCN1CCOCC1)c1cc2ccccc2[nH]1 -42.2%
COc1ccc(S(=O)(=O)N2CCCCC2)cc1NC(=S)Nc1cccc(Cl)c1C -30.7%
COc1cccc2c1C(=N)c1c(O)c3c(c(O)c1C2=O)CC(O)(C(C)=O)CC3OC1CC(N)C(O)C(C)O1 (configuration not stated) -39.1%
O=C(C1=C(O)C(=O)N(CCN2CCOCC2)C1c1ccccn1)c1cccs1 (configuration not stated) -39.2%
COc1cccc(C2=CC(=O)C[C@H](c3ccc4c(c3)OCO4)C2)c1 -39.8%
COc1ccccc1-c1n[nH]c(=S)n1Cc1ccccc1 -37.1%
Cc1cccc2sc(N(CCCN(C)C)C(=O)c3ccc(C(=O)c4ccccc4)cc3)nc12 -32.5%
O=C(CN1CCN(c2ccc(F)cc2)CC1)N(C1CCCC1)C1CCS(=O)(=O)C1 (configuration not stated) -37.7%
COc1ccc2c(c1)C(=NNc1ccc(C(=O)O)cc1)c1cc(OC)ccc1-2 -35.2%
C=CCN(c1ccccc1OC)S(=O)(=O)c1cccc(C(=O)NCc2cccs2)c1 -33.9%
Cc1ccc(/C=C/c2ccc3cccc(O)c3n2)s1 -42.1%
Cc1nc(-c2ccccn2)nc(N(C)c2ccccc2)c1Cl -38.3%
CCCCc1ccc(NS(=O)(=O)c2cccc(C(=O)N3CCCN(C)CC3)c2)cc1 -34.8%
CCN(CC(=O)Nc1c(F)cccc1F)C(=O)CNC(=O)c1ccc(C)s1 -37.3%
CC(C)c1ccc(C2CC(c3ccc(Br)cc3)=NN2C(N)=S)cc1 (configuration not stated) -42.1%
O=C(NC1CCCCC1)[C@H](O)[C@@H](O)C(=O)NC1CCCCC1 -46%
O=C(OC(c1ccc(NS(=O)(=O)c2ccccc2)cc1)(C(F)(F)F)C(F)(F)F)c1ccccc1 -31.5%
CC1=CC(C)(C)N(S(=O)(=O)c2ccc(C)cc2)c2ccc(C)cc21 -43.9%

3 compounds out of the list, sorted by count of non-hydrogen atoms, ascending.
Max response, negative = inhibition, inconclusive:
Cc1cccc2sc(N(CCCN(C)C)C(=O)c3ccc(C(=O)c4ccccc4)cc3)nc12 -32.5%
CC(=O)c1cccc(-c2ccnc3c2CC(C(=O)Nc2cccc(Oc4ccccc4)c2)O3)c1 (configuration not stated) -38.3%
COc1cccc2c1C(=N)c1c(O)c3c(c(O)c1C2=O)CC(O)(C(C)=O)CC3OC1CC(N)C(O)C(C)O1 (configuration not stated) -39.1%
